# Laboratory results as given in the supplement of paper PMC11150407.
# Several values for one entry are separate records, joined by “and”; a condition that tells them apart may be missing. Identical values can stand only once. Counter-ions that a name gives are not always drawn. Out of some 2,100 compounds screened, about 180 (8.6%) showed an effect of 50% or more. The list shows a part of the results.
# Test system: MOLM1 and UCSD/AML1 (averaged)
# Assay: cell viability relative to DMSO control (POC); higher = less growth inhibition
# Conditions: 1 µM; 72 h
# Description: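 Primary viability screen in the 3q26 EVI1-high AML cell lines MOLM1 and UCSD/AML1 (1.5e3 cells/well, 384-well), compounds at 1 uM for 72 h. ATP CellTiter-Glo read-out given as percent of viable cells over DMSO control (POC), averaged over duplicates. DMSO was the negative control and 5 uM etoposide the positive control. This mapping covers the MicroSource Spectrum and Selleck anticancer libraries (drug names).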
row,Compound,cell viability
1,Nc1ccc(C(=O)O)c(O)c1,103%
2,O=C(O)c1ccccc1Nc1cccc(C(F)(F)F)c1,98.9%
3,OCCc1ccccc1,109%
4,CC(=O)Nc1ccc(S(=O)(=O)c2ccc(NC(C)=O)cc2)cc1,99.1%
5,O=C1O[C@H]([C@@H](O)CO)C(O)=C1O,104%
6,Clc1ccc(C(c2ccccc2Cl)C(Cl)Cl)cc1 (stereo not drawn),103%
7,CN(C)CCOC(=O)C(c1ccccc1)C1(O)CCCC1 (stereo not drawn),101%
8,Nc1ccc(/N=N/c2ccccc2)c(N)n1,108%
9,NCCCS(=O)(=O)O,90.7%
10,Cc1c(S(=O)(=O)O)oc2c1C(=O)C(=O)c1c-2ccc2c1CCCC2(C)C,97.6%
11,Nc1nc(/C(=C/CC(=O)O)C(=O)N[C@@H]2C(=O)N3C(C(=O)O)=CCS[C@H]23)cs1,90%
12,Cc1ccc(Nc2nccc(N(C)c3ccc4c(C)n(C)nc4c3)n2)cc1S(N)(=O)=O [Pazopanib],60.1%
13,COc1cc(Nc2ncc3c(n2)-c2ccc(Cl)cc2C(c2c(F)cccc2OC)=NC3)ccc1C(=O)O [MLN8237 (Alisertib)],49.6%
14,C[C@H]1C(=O)CC[C@@H]2[C@]1(C)CC[C@H]1[C@@]2(C)CC[C@@]2(C)[C@@H]3CC(C)(C)CC[C@]3(C)CC[C@]12C,113%
15,OC(CCN1CCCCC1)(c1ccccc1)c1ccccc1,87.8%
16,CCCCC(=O)N(Cc1ccc(-c2ccccc2-c2nnn[nH]2)cc1)[C@H](C(=O)O)C(C)C,93.9%
17,Cc1cnc(NC(=O)Nc2cc(Br)c(C)cc2OC[C@@H]2CNCCO2)cn1,46.1%
18,O=C(O)c1cc(=O)c2ccccc2[nH]1,108%
19,CCCCCCCCCCCC[C@@H](C(=O)O)[C@H](C)C(=O)O,96%
20,"Cc1c(C(=O)Nc2ccc(N3C[C@@H](C)O[C@@H](C)C3)nc2)cccc1-c1ccc(OC(F)(F)F)cc1 [LDE225 (NVP-LDE225, Erismodegib)]",94.6%
21,Nc1cc(C(F)(F)F)c(-c2cc(N3CCOCC3)nc(N3CCOCC3)n2)cn1,26.9%
22,O=C1c2cccc(O)c2C(=O)c2c(O)cccc21,104%
23,CCOC(N)=O,108%
24,O=c1cc(N2CCOCC2)oc2c(-c3ccccc3)cccc12,73.8%

row,Compound,cell viability
1,C[C@H]1[C@H](C)CC[C@]2(C(=O)O)CC[C@]3(C)C(=CC[C@@H]4[C@@]5(C)C[C@@H](O)[C@H](O)[C@@](C)(CO)[C@@H]5[C@H](O)C[C@]43C)[C@H]12,86.8%
2,N[C@@H](Cc1ccc(O)c(O)c1)C(=O)O,106%
3,CN1CCN2c3ccccc3Cc3ccccc3C2C1 (stereo not drawn),102%
4,COc1cc(/C=C/CO)ccc1O,87.7%
5,COc1cc(O)cc(OC)c1OC,95.9%
6,O=C(NC(Cc1cc(=O)[nH]c2ccccc12)C(=O)O)c1ccc(Cl)cc1 (stereo not drawn),110%
7,COC(=O)[C@H]1[C@H]2C[C@H]3c4[nH]c5cc(OC)ccc5c4CCN3C[C@H]2C[C@@H](OC(=O)c2cc(OC)c(OC)c(OC)c2)[C@@H]1OC,111%
8,CC(C)(C)NC[C@H](O)COc1cccc2c1CCCC2=O,95.7%
9,C[N+](C)(C)CCOC(N)=O,107%
10,C[C@H](CCC(=O)O)[C@H]1CC[C@H]2[C@@H]3C(=O)C[C@@H]4CC(=O)CC[C@]4(C)[C@H]3CC(=O)[C@]12C,96.7% and 105%
11,CO[C@H]1C[C@H](O[C@@H]2/C(C)=C/C[C@@H]3C[C@@H](C[C@]4(CC[C@H](C)[C@@H](C5CCCCC5)O4)O3)OC(=O)[C@@H]3C=C(C)/C(=N/O)[C@H]4OC/C(=C\C=C\[C@@H]2C)[C@]43O)O[C@@H](C)[C@@H]1O,101%
12,Cc1nc2sccn2c(=O)c1CCN1CCC(=C(c2ccc(F)cc2)c2ccc(F)cc2)CC1,87.6%
13,O=C1c2c(O)ccc(O)c2C(=O)c2c(NCCNCCO)ccc(NCCNCCO)c21,8.27%
14,O=C1c2c(O)ccc(O)c2C(=O)c2c(NCCNCCO)ccc(NCCNCCO)c21 [Mitoxantrone Hydrochloride],2.15%
15,C[C@@](Cc1ccc(O)c(O)c1)(NN)C(=O)O,95.6%
16,O=c1[nH]cnc2nc[nH]c12,102%
17,Nc1ncnc2c1ncn2[C@@H]1O[C@H](CO)[C@@H](O)[C@@H]1O,93.9%
18,COc1cc(Nc2c(C#N)cnc3cc(OCCCN4CCN(C)CC4)c(OC)cc23)c(Cl)cc1Cl [Bosutinib (SKI-606)],21.3%
19,N#Cc1ccc2c(c1)N(CCCN1CCC(O)CC1)c1ccccc1S2,109%
20,CCC1(c2ccccc2)C(=O)NCNC1=O,97.5%
21,CC(C)CC(NC(=O)OCC1c2ccccc2-c2ccccc21)C(=O)O (stereo in doubt),105%
22,c1ccc(-c2ccc(C(c3ccccc3)n3ccnc3)cc2)cc1 (stereo not drawn),96.7%
23,Oc1c(Cl)cc(Cl)c2cccnc12,100%
24,CN(C)CCC(c1ccc(Br)cc1)c1ccccn1 (stereo not drawn),94.8%

row,Compound,cell viability
1,CC(C)NCC(O)COc1ccc(CC(N)=O)cc1 (stereo not drawn),99.5%
2,NC(Cn1ccc(=O)c(O)c1)C(=O)O (stereo not drawn),92.7%
3,CN1CCN(CC(=O)N2c3ccccc3C(=O)Nc3cccnc32)CC1,95.2%
4,Cc1ccc([C@@H]2O[C@H](CO)[C@@H](O)[C@H](O)[C@H]2O)cc1Cc1ccc(-c2ccc(F)cc2)s1 [Canagliflozin],91%
5,COC(=O)Nc1nc2cc(Sc3ccccc3)ccc2[nH]1,41.9%
6,Oc1cc2c(cc1O)C(c1ccccc1)CNCC2 (stereo not drawn),104%
7,Cc1cnc(Nc2ccc(OCCN3CCCC3)cc2)nc1Nc1cccc(S(=O)(=O)NC(C)(C)C)c1,13%
8,CCN(CC)C(C)CN1c2ccccc2Sc2ccccc21 (stereo not drawn),99.7%
9,CCCNC(=O)NS(=O)(=O)c1ccc(Cl)cc1,101%
10,CC(=O)O[C@]1(C(C)=O)CC[C@H]2[C@@H]3C=C(Cl)C4=CC(=O)CC[C@]4(C)[C@H]3CC[C@@]21C,90.3%
11,Clc1cccc(Cl)c1NC1=NCCN1,103%
12,CO[C@H]1/C=C/O[C@@]2(C)Oc3c(C)c(O)c4c(O)c(c5c(nc6cc(C)ccn65)c4c3C2=O)NC(=O)/C(C)=C\C=C\[C@H](C)[C@H](O)[C@@H](C)[C@@H](O)[C@@H](C)[C@H](OC(C)=O)[C@@H]1C,106%
13,CCCCCCCCCCCCCCCC(=O)OC[C@H](O)[C@H]1OC(=O)C(O)=C1O,99.4%
14,CC(=O)OC/C=C(\C)CC/C=C(\C)CC/C=C(\C)CC/C=C(\C)CC/C=C(\C)CC/C=C(\C)CC/C=C(\C)CC/C=C(\C)CCC=C(C)C,106%
15,COc1c(C)cnc(Cn2cnc3c(Cl)nc(N)nc32)c1C,4.8%
16,CN(C)C(=N)NC(=N)N,95.2%
17,NCCCCCC(=O)O,96.4%
18,c1ccc2c(CCNc3ccc(Nc4ccncc4)cc3)c[nH]c2c1,43.4%
19,CNCCc1ccccn1,102%
20,CC1CC2C3CCC4=CC(=O)C=CC4(C)C3(F)C(O)CC2(C)C1C(=O)CO (stereo not drawn),61.4%
21,CC=CC(=O)N(CC)c1ccccc1C,56.3%
22,CC(=O)[C@@]1(O)CC[C@H]2[C@@H]3CCC4=CC(=O)CC[C@]4(C)[C@H]3CC[C@@]21C,105%
23,Nc1nccc(Oc2ccc(NC(=O)c3c[nH]cc(-c4ccc(F)cc4)c3=O)cc2F)c1Cl,83.2%
24,NC(=O)Nc1cc(-c2cccc(F)c2)sc1C(=O)N[C@H]1CCCNC1,5.84%

row,Compound,cell viability
1,C[C@H]1[C@H](C)CC[C@]2(C(=O)O)CC[C@]3(C)C(=CC[C@@H]4[C@@]5(C)CC[C@H](O)C(C)(C)[C@@H]5CC[C@]43C)[C@H]12,95.9%
2,NC1(C(=O)O)CC1,95.2%
3,Oc1cc2c(cc1O)C1c3ccc(O)c(O)c3OCC1(O)C2 (stereo not drawn),103%
4,CCN(CC)C(=O)c1ccc(O)c(OC)c1,95.6%
5,CSCC[C@H](NC=O)C(=O)N[C@@H](Cc1ccccc1)C(=O)O,105%
6,CC(=O)O[C@@H]1C[C@H]2C(C)(C)C(=O)C=C[C@]2(C)[C@H]2CC[C@@]3(C)[C@H](c4ccoc4)OC(=O)[C@H]4O[C@]43[C@@]21C,82.8%
7,Cc1cc2nc3c(=O)[nH]c(=O)nc-3n(C[C@H](O)[C@H](O)[C@H](O)CO)c2cc1C,105%
8,CN(C)CCOC(c1ccccc1)c1ccccc1.Cn1c(=O)c2[nH]c(Cl)nc2n(C)c1=O,113%
9,C[C@@H]1CC[C@@]23CCC4(C)[C@@](C=CC5[C@@]6(C)CC[C@H](O)C(C)(C)C6CC[C@]54C)(OC2=O)C3[C@H]1C (stereo partly drawn),90.8%
10,COc1cc(C)c(C(=O)Oc2cc(C)c(C(=O)O)c(O)c2C)c(OC)c1C,109%
11,O=C1NCC2(CCN(CCc3ccccc3)CC2)O1,102%
12,Clc1ccc2c(c1)CCc1cccnc1C2=C1CCNCC1,98.9%
13,CCCCCCNC(=O)n1cc(F)c(=O)[nH]c1=O,88.6%
14,CCCCCCNC(=O)n1cc(F)c(=O)[nH]c1=O [Carmofur],103%
15,COc1ccc(Cl)cc1C(=O)NCCc1ccc(S(=O)(=O)NC(=O)NC2CCCCC2)cc1,107%
16,CC[C@@H]1C(=O)N(C)c2cnc(Nc3ccc(C(=O)N[C@H]4CC[C@H](N5CCN(CC6CC6)CC5)CC4)cc3OC)nc2N1C(C)C [BI6727 (Volasertib)],14.5%
17,CC#C[C@]1(O)CC[C@H]2[C@@H]3CCC4=CC(=O)CCC4=C3[C@@H](c3ccc(N(C)C)cc3)C[C@@]21C [Mifepristone (Mifeprex)],90%
18,O=C(O)C1=CC(=C(c2ccc(O)c(C(=O)O)c2)c2ccc(O)c(C(=O)O)c2)C=CC1=O,109%
19,C[C@@H]1C/C=C/C=C/C=C/C=C/[C@H](O[C@@H]2O[C@H](C)[C@@H](O)[C@H](N)[C@@H]2O)C[C@@H]2O[C@](O)(C[C@@H](O)C[C@H]3O[C@@H]3/C=C/C(=O)O1)C[C@H](O)[C@H]2C(=O)O,96.4%
20,NCCC(=O)N[C@@H](Cc1c[nH]cn1)C(=O)O,89.7%
21,CC1(C)O[C@@H]2C[C@H]3[C@@H]4C[C@H](F)C5=CC(=O)C=C[C@]5(C)[C@@]4(F)[C@@H](O)C[C@]3(C)[C@]2(C(=O)CO)O1,71.2%
